The supplement of paper PMC12823440, “Inhibitors supercharge kinase turnover through native proteolytic circuits” (Nature, 2025)
Counter-ions that a name gives are not always drawn. Some of the results follow. Hit calls seldom repeat between salt and free forms of one compound.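 Kinases were expressed as nanoluciferase fusions in K562 cells and luminescence was read every 4 h between 2 and 18 h as percent of control, DMSO set to 100% and a positive control to 0%. A time point counts as decreased when the signal drops significantly (2 sigma). The hit call is the authors' own, does not follow from the count of time points alone, and its rule is not shown.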

Chains of the proteins cited; added tags and fusions are not shown. Lines headed by an entry give the natural chain unless they say otherwise; changes in a name come on top.
UniProt Q13546: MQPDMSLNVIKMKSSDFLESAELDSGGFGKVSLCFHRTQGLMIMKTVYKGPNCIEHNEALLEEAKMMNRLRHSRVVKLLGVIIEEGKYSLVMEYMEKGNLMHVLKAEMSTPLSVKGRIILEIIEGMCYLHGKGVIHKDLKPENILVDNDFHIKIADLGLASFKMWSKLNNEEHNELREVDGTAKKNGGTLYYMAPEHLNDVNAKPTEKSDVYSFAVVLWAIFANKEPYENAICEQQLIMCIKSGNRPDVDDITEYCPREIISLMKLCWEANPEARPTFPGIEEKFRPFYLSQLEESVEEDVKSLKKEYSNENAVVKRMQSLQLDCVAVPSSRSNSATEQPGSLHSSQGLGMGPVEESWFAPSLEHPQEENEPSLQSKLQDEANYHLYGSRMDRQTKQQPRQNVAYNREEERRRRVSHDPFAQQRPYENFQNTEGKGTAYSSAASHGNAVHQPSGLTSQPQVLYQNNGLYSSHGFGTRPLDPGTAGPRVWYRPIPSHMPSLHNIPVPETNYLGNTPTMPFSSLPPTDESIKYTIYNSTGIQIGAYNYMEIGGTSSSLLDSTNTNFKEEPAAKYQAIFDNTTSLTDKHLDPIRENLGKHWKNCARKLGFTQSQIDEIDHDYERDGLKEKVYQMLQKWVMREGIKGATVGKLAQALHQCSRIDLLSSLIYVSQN

molecular target: RIPK1 (UniProt Q13546); assay: number of time points (of 5) at which kinase-Nluc abundance scored as decreased, DMSO-normalised (count); higher = more persistent destabilization; conditions: K562; 2-18 h

`CC(C)CN(CC(=O)N1CCN(CC(OCc2ccc3ccccc3c2)c2ccc(Cl)cc2Cl)CC1)CC(C)C` (stereo unspecified) [LYN-1604 (dihydrochloride)] (2.5 µM) and `COCCOc1ccc(-c2cn(-c3ccccc3)c3nc[nH]c(=O)c23)cc1` (10 µM) are the same in “number of time points” value: 0 for the first, 0 for the second.

`CO[C@H]1C[C@@H]2CC[C@@H](C)[C@@](O)(O2)C(=O)C(=O)N2CCCC[C@H]2C(=O)O[C@H]([C@H](C)C[C@@H]2CC[C@@H](O)[C@H](OC)C2)CC(=O)[C@H](C)/C=C(\C)[C@@H](O)[C@@H](OC)C(=O)[C@H](C)C[C@H](C)/C=C/C=C/C=C/1C` [Rapamycin] (10 µM) and `CCOc1cc(C(=O)N2CCC(N3CCN(C)CC3)CC2)ccc1Nc1ncc2c(n1)N(C1CCCC1)c1ccccc1C(=O)N2C` (10 µM) are the same in “number of time points” value: 0 for the first, 0 for the second.

First: Cc1ccc(Nc2cc(-c3cccc(N4C(=O)c5ccccc5C4=O)c3)ncn2)cc1NS(C)(=O)=O (10 µM)
Second: Nc1cc(Nc2ccc(S(N)(=O)=O)cc2)ncn1 (10 µM)
The “number of time points” value of the first is higher: 1 for the first, 0 for the second.

In the case of `Cc1cc(O)c(C(C)C)cc1N=O` [Poloxime] (10 µM), the “number of time points” value is reported as 2.

molecular target: RIPK2 (UniProt O43353); assay: as above; conditions: K562; 2-18 h

`COc1ccc(Cn2cc(C(=O)N=Nc3c(O)[nH]c4c(C)cccc34)nn2)cc1` [MARK4 inhibitor 1] (10 µM) and `COc1ccc([C@H]2c3[nH]c4ccc(Cl)cc4c3CCN2C(=O)Oc2ccc(Cl)cc2)cc1` (2.5 µM) are the same in “number of time points” value: 0 for the first, 0 for the second.

`COc1cc([N+](=O)[O-])ccc1S(=O)(=O)N1C[C@@H](CN2CCN(c3ccccn3)CC2)[C@H](c2cccc(F)c2)C1` (relative stereo) (10 µM) and `CCN(CC)S(=O)(=O)c1ccc(OC)c(N2CCN(C(=O)c3ccc(F)cc3C(F)(F)F)CC2)c1` (10 µM) are the same in “number of time points” value: 0 for the first, 0 for the second.

`Cc1cc(Nc2nc(N[C@@H](C)c3ccc(F)cc3)c(C#N)cc2F)n[nH]1` (10 µM) and `CC1CN(C(=O)Nc2ccc(Cl)c(Cl)c2)C(=Nc2ccc(F)cc2)S1` (stereo unspecified) (10 µM) are the same in “number of time points” value: 0 for the first, 0 for the second.

`Cc1ccc(S(=O)(=O)/C=C/C#N)cc1` (10 µM) and `Nc1cc(Nc2ccc(S(N)(=O)=O)cc2)ncn1` (10 µM) are the same in “number of time points” value: 0 for the first, 0 for the second.

`Cc1c(CN2CCN(S(C)(=O)=O)CC2)sc2c(N3CCOCC3)nc(-c3cnc(N)nc3)nc12` (2.5 µM) and `CC(C)=CC(=O)CCC(=O)N1CCN(Cc2cc3nc(-c4cccc5[nH]ncc45)nc(N4CCOCC4)c3s2)CC1` (10 µM) are the same in “number of time points” value: 0 for the first, 0 for the second.

First: COc1ccc(-c2ccc3c(N4CCOC[C@@H]4C)nc(N4CCOC[C@@H]4C)nc3n2)cc1CO (2.5 µM)
Second: COc1ncc(-c2nc(N3CCOCC3)nc3c(CN4CCC(C(C)(C)O)CC4)cc(F)cc23)cc1NS(C)(=O)=O [Linperlisib] (10 µM)
The “number of time points” value of the first is higher: 3 for the first, 0 for the second.

`COCCO[C@@H]1[C@H](O)[C@@H](CO)O[C@H]1n1cnc2c(=O)[nH]c(N)nc21` [2′-O-(2-Methoxyethyl)guanosine] (10 µM) and `COCCOc1ccc(-c2cn(-c3ccccc3)c3nc[nH]c(=O)c23)cc1` (10 µM) are the same in “number of time points” value: 0 for the first, 0 for the second.

`COc1cc(F)c(F)c(Nc2ccc(I)cc2F)c1NS(=O)(=O)C1(C[C@H](O)CO)CC1` [Refametinib] (10 µM) and `COc1c(NC(=O)C(=O)c2ccc(OCCN3CCOCC3)c3ccccc23)cc(C(C)(C)C)cc1NS(C)(=O)=O` (2.5 µM) are the same in “number of time points” value: 0 for the first, 0 for the second.

`CC(C)=CC[C@H](O)C1=CC(=O)c2c(O)ccc(O)c2C1=O` [(-)-Alkannin] (2.5 µM) and `COc1ccc([C@@H]2CC(=O)c3c(O)cc(O)cc3O2)cc1O` [Hesperetin] (10 µM) are the same in “number of time points” value: 0 for the first, 0 for the second.

`C[C@@]1(O)CCC[C@H]1n1c(=O)c(C(F)F)cc2cnc(NC3CCN(S(C)(=O)=O)CC3)nc21` (2.5 µM) and `CCOc1cc(C(=O)N2CCC(N3CCN(C)CC3)CC2)ccc1Nc1ncc2c(n1)N(C1CCCC1)c1ccccc1C(=O)N2C` (10 µM) are the same in “number of time points” value: 0 for the first, 0 for the second.

`CS(=O)(=O)c1ccc(-c2noc(C(F)(F)F)c2-c2ccccc2)cc1` (10 µM) and `COc1ccc(C2CC(c3ccccc3)=NN2c2ccc(S(N)(=O)=O)cc2)cc1` (stereo unspecified) (10 µM) are the same in “number of time points” value: 0 for the first, 0 for the second.

`COc1ccc2[nH]cc(/C=C3\C(=O)Nc4ccc(NC(=O)CCN5CCCCC5)cc43)c2c1` (2.5 µM) and `C/C(=C1/C(=O)Nc2ccc(NC(N)=O)cc21)c1ccc[nH]1` (10 µM) are the same in “number of time points” value: 0 for the first, 0 for the second.

`O=C(Nc1ccc(F)cc1F)[C@H](NC(=S)Nc1cc(C(F)(F)F)cc(C(F)(F)F)c1)c1ccccc1` (2.5 µM) and `O=C(Nc1nc2ccccc2[nH]1)c1cccc(-n2cccc2)c1` (10 µM) are the same in “number of time points” value: 0 for the first, 0 for the second.

Compared with `CC(C)CN[C@H]1CS(=O)(=O)C[C@@H]1S(=O)(=O)c1ccc(Cl)cc1` (10 µM), `Cc1ccc(S(=O)(=O)Nc2ccccc2C=Nc2ccccc2NS(=O)(=O)c2ccc(C)cc2)cc1` (10 µM) is lower in “number of time points” value: 1 for the first, 0 for the second.

`CC/C=C\C/C=C\C/C=C\CCCCCCCC(=O)O` [α-Linolenic acid] (10 µM) and `NCCN1CCN(C/C=C/C(=O)N2CCC[C@@H](n3nc(-c4ccc(Oc5ccccc5)cc4)c4c(N)ncnc43)C2)CC1` [Ibrutinib-MPEA] (10 µM) are the same in “number of time points” value: 0 for the first, 0 for the second.

`N#Cc1cccc(-c2c[nH]c3ncnc(N4CCOCC4)c23)c1` (10 µM) and `N#Cc1ccc2ncnc(NC3CCC(N4CCOCC4)CC3)c2c1` (stereo unspecified) (10 µM) are the same in “number of time points” value: 0 for the first, 0 for the second.

`Nc1ncnc2c1c(-c1ccc(Oc3ccccc3)cc1)nn2C1CCNCC1` [N-piperidine Ibrutinib (hydrochloride)] (10 µM) and `O=C(CNC(=O)c1ccc(-c2ccccc2)cc1)NC1CCCc2ccccc21` (stereo unspecified) [TAO Kinase inhibitor 1] (10 µM) are the same in “number of time points” value: 0 for the first, 0 for the second.

`CC(=O)c1c(C)c2cnc(Nc3ccc(N4CCN(CCCCNC(=O)COc5cccc6c5C(=O)N(C5CCC(=O)NC5=O)C6=O)CC4)cn3)nc2n(C2CCCC2)c1=O` (stereo unspecified) (10 µM) and `Cc1ccc(Nc2cc(-c3cccc(N4C(=O)c5ccccc5C4=O)c3)ncn2)cc1NS(C)(=O)=O` (10 µM) are the same in “number of time points” value: 0 for the first, 0 for the second.

`CC(C)CN(CC(=O)N1CCN(CC(OCc2ccc3ccccc3c2)c2ccc(Cl)cc2Cl)CC1)CC(C)C` (stereo unspecified) [LYN-1604 (dihydrochloride)] (2.5 µM) and `Cc1cc(O)c(C(C)C)cc1N=O` [Poloxime] (10 µM) are the same in “number of time points” value: 0 for the first, 0 for the second.

`CO[C@H]1C[C@@H]2CC[C@@H](C)[C@@](O)(O2)C(=O)C(=O)N2CCCC[C@H]2C(=O)O[C@H]([C@H](C)C[C@@H]2CC[C@@H](O)[C@H](OC)C2)CC(=O)[C@H](C)/C=C(\C)[C@@H](O)[C@@H](OC)C(=O)[C@H](C)C[C@H](C)/C=C/C=C/C=C/1C` [Rapamycin] (10 µM) was tested, and the “number of time points” value was 0.
